The list shows a part of the results.

This test addresses T1, OsSMF1 (Oryza sativa, UniProt Q6ZLB0 1-436).
T1 sequence: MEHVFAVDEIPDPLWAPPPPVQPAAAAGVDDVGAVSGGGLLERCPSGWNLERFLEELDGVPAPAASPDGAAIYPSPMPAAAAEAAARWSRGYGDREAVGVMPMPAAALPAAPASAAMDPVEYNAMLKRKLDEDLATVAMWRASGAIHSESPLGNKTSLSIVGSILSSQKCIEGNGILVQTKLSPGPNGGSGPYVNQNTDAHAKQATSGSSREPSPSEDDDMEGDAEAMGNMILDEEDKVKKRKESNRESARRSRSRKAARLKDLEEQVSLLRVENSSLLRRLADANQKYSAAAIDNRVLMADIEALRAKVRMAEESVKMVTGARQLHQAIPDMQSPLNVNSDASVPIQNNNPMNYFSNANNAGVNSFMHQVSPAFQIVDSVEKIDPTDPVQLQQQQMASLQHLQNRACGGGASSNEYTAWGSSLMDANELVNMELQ
The experiment in a line: protein-binding microarray (RPBM); PBS, 2% BSA, 51.3 ng/ul salmon testes DNA, 50 uM zinc acetate, 200 nM TF, 25 C, 1 h; high values mean tight binding. The conditions noted are these: protein: recombinant; tags: N-terminal polyhistidine and DsRed monomer fusion (pET32a); chain copies: 2; label: CyDye5-dUTP incorporated in the synthesized complementary strand; 3' TTTTT single-stranded linker to array surface; dsDNA, one strand shown. In outline: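 Polyhistidine-tagged DsRed fusions of transcription factors, joined at the N-terminus, were expressed in E. coli BL21-CodonPlus and isolated on Ni–NTA. They were incubated at 200 nM for 1 h at 25 °C on a custom Agilent array, double-stranded and BSA-blocked, in PBS with 2% BSA, salmon testes DNA and 50 µM zinc acetate. The binding signal is per-feature fluorescence intensity (arbitrary units) read on an Axon 4000B scanner after washing.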
With “ACAAAGATTCTCCACTAGCAGCTTGTGACAAGCATGCACACGGAGTCACCTAGTGCAG”, the binding signal is 3300 fluorescence intensity (a.u.).
Turning to “GTGCGAGCTGCGCCCGTGTGATGTGGGCGGGTGGGTGTTCCGGAGTCACCTAGTGCAG”, the binding signal was 3660 fluorescence intensity (a.u.).
With “ACTTCCATACTGGTGACGTCGCTGTTCCCGGACTACTACGCGGAGTCACCTAGTGCAG” the figure was 3870 fluorescence intensity (a.u.).
Turning to “GCTTGCTGGGACTCTTGTGGTCGACACCTGGCAACATATTCGGAGTCACCTAGTGCAG”, the binding signal was 6760 fluorescence intensity (a.u.).
For “AGATCTCCGTTCAAACATTCTGACTAGGATTGTGCACATTCGGAGTCACCTAGTGCAG” the value was 8800 fluorescence intensity (a.u.); for “AAATGGCATGATTTTATTGCGGGGATTATTTATACATTTGCGGAGTCACCTAGTGCAG”, 12300 fluorescence intensity (a.u.); for “CAGGCTACAGGGCATTTGTGTCATTTTGCAAGAAGGCATACGGAGTCACCTAGTGCAG”, 3380 fluorescence intensity (a.u.).
For “ATGCATACGTGTGTCCCGTCTCTGCCTGCTGCTCTGTTCGCGGAGTCACCTAGTGCAG” the value was 7410 fluorescence intensity (a.u.).
With “TAAATGGATCCCATTTGTCAGTCAAAATGATGCCACGTCACGGAGTCACCTAGTGCAG” the figure was 26000 fluorescence intensity (a.u.); with “CGTCCAATAGGGTTCGAGGACGTCAGCAAGCCGGGCGTCGCGGAGTCACCTAGTGCAG”, 11900 fluorescence intensity (a.u.).
As for “TGCCGCCCGTCTCCGACGTCAGCCGGTTGCACCAATGCCACGGAGTCACCTAGTGCAG”, the binding signal was 5580 fluorescence intensity (a.u.).
With “TGACAACAACAAGCATATATTCTGATTTGGAGTCACAAGACGGAGTCACCTAGTGCAG” the figure was 11600 fluorescence intensity (a.u.); with “AAGAAGGGCGCGCCCACGCGTGCGCACGTCGTCGTTGGCGCGGAGTCACCTAGTGCAG”, 6000 fluorescence intensity (a.u.).
With “CACACGACGCCGCCGCCGCCACGCGCGTCACGAAAACCCTCGGAGTCACCTAGTGCAG” the figure was 3160 fluorescence intensity (a.u.).
With “ATCTTCACTGCATATCTACGTGGCATCCGGCTCGTAATATCGGAGTCACCTAGTGCAG” the figure was 8700 fluorescence intensity (a.u.); with “CATCGATGTGTTTATTTTGAATGTTATATGAATGCCACCTCGGAGTCACCTAGTGCAG”, 3390 fluorescence intensity (a.u.); with “CGGCGCTCACAAATTGTCGTCGTCACGAAATCGCAACCCTCGGAGTCACCTAGTGCAG”, 3500 fluorescence intensity (a.u.).
As for “ACCCTGCCACGTCATATCAAACGGCACATATCTCACAATCCGGAGTCACCTAGTGCAG”, the binding signal is 18800 fluorescence intensity (a.u.).
For “TTTGGTAGGGATGTTGTGTTTTCTTTGCGAACACCGGTGACGGAGTCACCTAGTGCAG” the value was 3380 fluorescence intensity (a.u.).
With “CAGGGAGCTAGGCCGCCAGCGTGGGCAAGCACGCGCCCGCCGGAGTCACCTAGTGCAG” the figure was 3400 fluorescence intensity (a.u.).
With “GACCGTGCCGTCGTAATCACACTGCCCTGCTGACTAATCTCGGAGTCACCTAGTGCAG” the figure was 10000 fluorescence intensity (a.u.); with “CTTTGTTTGTTCCATGTATAGGTGACTCGATGTCTCGGGACGGAGTCACCTAGTGCAG”, 3480 fluorescence intensity (a.u.).
In the case of “TGAAATCAGGTTTGAAATAAGTTCTTTAGGGTGCTTATTTCGGAGTCACCTAGTGCAG”, the binding signal was 23000 fluorescence intensity (a.u.).

Source of the values: publication PMC7819943, “Rice protein-binding microarrays: a tool to detect cis-acting elements near promoter regions in rice”.
